These are yes or no findings as the source states them, for the method shown. For part of these data: Binding seen in cells or lysates may run through a third protein. Some binding calls cover weakened binding; strength is not graded here.
How the values were obtained:
[1] = target: apoB in human LDL particles (human) (UniProt P04114); experiment: surface plasmon resonance sensorgrams
[2] = target: apoB-100 in HuH-7 cells (UniProt P04114); experiment: reciprocal co-immunoprecipitation, HuH-7 cells transfected with SORT1
[3] = target: apoB-100 in HuH-7 cells (UniProt P04114); experiment: reciprocal co-immunoprecipitation from crosslinked lysate of SORT1-overexpressing HuH-7 cells, Western blot

Chains of the proteins cited; added tags and fusions are not shown. Lines headed by an entry give the natural chain unless they say otherwise; changes in a name come on top. Residues count along the entry.
UniProt P04114, residues 28-4563: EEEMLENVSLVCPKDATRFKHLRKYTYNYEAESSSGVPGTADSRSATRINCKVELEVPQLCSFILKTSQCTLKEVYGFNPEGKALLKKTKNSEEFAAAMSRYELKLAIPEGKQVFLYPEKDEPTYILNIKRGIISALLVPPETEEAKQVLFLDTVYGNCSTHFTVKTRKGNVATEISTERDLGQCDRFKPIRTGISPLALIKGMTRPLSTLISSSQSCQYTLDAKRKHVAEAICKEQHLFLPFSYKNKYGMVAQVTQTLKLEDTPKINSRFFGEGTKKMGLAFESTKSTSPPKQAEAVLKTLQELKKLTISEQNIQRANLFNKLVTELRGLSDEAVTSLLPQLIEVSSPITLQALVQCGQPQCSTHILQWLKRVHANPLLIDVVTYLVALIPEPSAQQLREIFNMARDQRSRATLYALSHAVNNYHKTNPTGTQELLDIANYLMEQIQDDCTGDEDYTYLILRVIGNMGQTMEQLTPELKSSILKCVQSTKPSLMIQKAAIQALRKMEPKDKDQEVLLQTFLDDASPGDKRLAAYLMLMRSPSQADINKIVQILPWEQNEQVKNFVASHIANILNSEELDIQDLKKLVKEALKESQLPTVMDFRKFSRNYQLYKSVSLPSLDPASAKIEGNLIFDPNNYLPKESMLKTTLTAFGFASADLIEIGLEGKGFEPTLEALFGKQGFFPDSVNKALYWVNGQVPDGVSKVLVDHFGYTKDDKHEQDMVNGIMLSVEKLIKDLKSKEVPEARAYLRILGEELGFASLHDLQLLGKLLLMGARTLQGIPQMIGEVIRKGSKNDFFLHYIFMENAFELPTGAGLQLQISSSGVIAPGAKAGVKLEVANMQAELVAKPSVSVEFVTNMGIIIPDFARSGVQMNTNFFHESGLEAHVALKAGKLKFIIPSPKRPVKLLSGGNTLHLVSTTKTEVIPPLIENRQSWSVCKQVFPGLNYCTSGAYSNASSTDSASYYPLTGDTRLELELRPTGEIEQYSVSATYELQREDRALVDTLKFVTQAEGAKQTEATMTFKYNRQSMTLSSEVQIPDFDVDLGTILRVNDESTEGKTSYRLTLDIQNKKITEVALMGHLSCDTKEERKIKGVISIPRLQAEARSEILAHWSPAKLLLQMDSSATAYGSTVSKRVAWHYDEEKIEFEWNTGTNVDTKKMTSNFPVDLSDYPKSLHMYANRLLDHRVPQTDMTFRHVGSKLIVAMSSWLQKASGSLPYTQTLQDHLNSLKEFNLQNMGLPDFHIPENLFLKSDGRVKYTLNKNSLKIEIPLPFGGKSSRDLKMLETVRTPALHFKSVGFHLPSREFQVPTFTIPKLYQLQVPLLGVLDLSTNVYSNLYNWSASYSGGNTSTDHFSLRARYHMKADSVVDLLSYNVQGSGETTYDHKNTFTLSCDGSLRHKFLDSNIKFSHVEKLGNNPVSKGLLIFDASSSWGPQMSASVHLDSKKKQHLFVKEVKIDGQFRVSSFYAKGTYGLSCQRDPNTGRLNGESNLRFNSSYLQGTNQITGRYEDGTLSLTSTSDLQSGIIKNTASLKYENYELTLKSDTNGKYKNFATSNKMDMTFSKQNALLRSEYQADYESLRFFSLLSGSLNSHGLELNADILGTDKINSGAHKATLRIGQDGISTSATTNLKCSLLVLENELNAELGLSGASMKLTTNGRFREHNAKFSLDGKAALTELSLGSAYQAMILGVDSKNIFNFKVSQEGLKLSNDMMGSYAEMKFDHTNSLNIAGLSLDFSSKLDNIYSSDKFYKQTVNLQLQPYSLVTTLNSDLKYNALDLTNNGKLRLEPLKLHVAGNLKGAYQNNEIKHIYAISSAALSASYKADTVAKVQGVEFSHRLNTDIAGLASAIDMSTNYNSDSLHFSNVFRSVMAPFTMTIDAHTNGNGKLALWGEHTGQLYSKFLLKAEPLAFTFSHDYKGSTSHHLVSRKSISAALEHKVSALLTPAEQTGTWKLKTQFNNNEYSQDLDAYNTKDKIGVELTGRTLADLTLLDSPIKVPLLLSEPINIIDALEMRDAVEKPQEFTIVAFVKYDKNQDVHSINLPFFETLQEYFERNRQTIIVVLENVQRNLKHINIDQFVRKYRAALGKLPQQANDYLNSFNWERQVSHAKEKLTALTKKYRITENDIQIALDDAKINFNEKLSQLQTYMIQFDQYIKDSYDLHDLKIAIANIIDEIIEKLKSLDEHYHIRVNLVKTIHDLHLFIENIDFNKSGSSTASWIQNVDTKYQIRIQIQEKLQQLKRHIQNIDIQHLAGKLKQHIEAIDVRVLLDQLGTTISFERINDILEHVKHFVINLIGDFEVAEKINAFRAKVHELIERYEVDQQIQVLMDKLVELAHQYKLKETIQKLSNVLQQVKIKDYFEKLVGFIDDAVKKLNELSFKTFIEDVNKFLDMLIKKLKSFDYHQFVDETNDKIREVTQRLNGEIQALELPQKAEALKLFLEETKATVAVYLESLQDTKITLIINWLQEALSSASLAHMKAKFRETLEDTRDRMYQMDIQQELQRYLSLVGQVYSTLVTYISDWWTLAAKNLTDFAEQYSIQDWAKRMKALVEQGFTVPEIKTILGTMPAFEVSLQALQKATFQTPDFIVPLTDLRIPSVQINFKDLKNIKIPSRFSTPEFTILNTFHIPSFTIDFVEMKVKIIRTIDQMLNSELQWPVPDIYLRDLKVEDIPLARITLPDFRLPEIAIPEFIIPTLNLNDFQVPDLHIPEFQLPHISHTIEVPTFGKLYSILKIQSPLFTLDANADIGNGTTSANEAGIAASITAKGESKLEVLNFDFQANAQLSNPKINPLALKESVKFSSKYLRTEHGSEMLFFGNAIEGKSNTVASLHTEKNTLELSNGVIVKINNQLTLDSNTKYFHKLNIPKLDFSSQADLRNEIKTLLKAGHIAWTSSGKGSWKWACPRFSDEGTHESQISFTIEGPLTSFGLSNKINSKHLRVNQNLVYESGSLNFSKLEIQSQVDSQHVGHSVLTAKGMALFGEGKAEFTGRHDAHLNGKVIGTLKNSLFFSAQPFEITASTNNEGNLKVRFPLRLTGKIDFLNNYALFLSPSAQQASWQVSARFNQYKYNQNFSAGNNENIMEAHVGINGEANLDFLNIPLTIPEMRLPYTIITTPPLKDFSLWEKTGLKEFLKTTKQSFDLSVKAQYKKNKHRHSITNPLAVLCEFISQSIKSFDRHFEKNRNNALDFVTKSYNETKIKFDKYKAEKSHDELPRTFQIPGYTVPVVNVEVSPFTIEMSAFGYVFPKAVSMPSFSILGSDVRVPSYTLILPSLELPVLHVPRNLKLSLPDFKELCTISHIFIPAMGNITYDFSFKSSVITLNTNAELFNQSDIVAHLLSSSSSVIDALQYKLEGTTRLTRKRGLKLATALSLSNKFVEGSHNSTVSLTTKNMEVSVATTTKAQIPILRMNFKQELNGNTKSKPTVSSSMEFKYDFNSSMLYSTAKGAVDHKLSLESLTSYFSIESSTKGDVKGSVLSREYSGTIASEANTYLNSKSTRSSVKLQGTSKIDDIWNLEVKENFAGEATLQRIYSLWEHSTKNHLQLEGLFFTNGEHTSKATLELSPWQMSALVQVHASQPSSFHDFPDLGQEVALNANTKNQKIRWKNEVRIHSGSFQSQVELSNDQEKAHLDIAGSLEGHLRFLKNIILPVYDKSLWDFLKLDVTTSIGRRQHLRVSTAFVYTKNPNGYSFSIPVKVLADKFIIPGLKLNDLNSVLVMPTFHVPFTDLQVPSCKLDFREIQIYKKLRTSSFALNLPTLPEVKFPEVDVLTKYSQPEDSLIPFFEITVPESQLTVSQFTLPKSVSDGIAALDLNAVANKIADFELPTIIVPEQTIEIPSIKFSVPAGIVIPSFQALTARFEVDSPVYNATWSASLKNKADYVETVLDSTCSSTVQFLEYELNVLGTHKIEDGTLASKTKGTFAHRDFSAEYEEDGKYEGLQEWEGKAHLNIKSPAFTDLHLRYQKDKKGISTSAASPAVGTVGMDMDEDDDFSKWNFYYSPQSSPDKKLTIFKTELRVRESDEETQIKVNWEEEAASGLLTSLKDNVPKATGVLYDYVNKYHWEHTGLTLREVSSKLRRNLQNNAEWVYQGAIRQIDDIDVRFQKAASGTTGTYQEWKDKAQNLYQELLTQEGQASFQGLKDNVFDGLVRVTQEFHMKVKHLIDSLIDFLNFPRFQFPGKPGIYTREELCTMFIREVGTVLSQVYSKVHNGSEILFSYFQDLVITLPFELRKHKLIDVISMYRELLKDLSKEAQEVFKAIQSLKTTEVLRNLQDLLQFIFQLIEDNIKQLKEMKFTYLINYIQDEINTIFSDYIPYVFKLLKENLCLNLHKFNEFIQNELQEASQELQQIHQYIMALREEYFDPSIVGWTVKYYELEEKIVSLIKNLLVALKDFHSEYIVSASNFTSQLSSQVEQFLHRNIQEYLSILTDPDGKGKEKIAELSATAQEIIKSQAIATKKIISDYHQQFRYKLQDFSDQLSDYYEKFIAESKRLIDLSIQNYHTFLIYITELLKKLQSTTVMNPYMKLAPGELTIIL
UniProt Q99523: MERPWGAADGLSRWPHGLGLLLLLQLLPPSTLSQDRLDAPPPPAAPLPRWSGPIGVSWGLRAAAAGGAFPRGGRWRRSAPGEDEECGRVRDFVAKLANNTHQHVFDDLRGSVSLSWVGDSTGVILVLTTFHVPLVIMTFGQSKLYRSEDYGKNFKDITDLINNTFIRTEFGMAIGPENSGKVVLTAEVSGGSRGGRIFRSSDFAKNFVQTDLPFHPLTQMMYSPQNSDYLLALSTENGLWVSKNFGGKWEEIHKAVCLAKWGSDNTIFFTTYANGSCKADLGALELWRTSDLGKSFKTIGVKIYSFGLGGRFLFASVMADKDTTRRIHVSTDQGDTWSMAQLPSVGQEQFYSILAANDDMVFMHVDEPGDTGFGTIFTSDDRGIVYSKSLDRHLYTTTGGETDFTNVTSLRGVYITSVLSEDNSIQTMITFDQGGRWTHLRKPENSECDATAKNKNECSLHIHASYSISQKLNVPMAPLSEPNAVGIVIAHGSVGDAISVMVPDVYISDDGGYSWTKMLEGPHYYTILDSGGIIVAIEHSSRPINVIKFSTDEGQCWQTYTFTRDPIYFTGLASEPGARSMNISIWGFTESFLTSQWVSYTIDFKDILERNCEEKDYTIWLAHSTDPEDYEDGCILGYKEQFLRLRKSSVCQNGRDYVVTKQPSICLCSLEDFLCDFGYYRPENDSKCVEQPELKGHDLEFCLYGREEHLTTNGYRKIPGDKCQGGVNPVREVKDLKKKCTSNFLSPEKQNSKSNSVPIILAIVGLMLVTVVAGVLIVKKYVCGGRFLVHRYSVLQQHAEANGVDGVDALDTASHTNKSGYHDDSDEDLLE

binding [1]	binding [2]	binding [3]	Substance
binds			recombinant sortilin (human sortilin, immobilized) (from UniProt Q99523 78-755) (receptor)
	binds	binds	sortilin in SORT1-overexpressing HuH-7 cells (from UniProt Q99523 78-831) (receptor)
